Reference: paper doi:10.1101/2023.12.07.570680
No constants are given. Whether binding was seen depends on the method and setting. Tags and fused reporters may be left off the sequences shown.

Biological target: WTF1 (yeast two-hybrid fusion, transit peptide removed)
Experiment: two-hybrid

binding: no binding
B1: EMB1006 (yeast two-hybrid fusion, transit peptide removed) (protein, UniProt Q9FGR7 45-723)
chain: ATSPSSSSSSPSIFLSCFDDALPDKIQQPENSTINSEESECEEEDDEEGDDFTDPILKFFKSRTLTSESTADPARESKFSLQKNRRTSWHLAPDFADPETEIESKPEESVFVTNQQTLGVHIPFESGVAREILELAKNLKENQTLGEMLSGFERRVSDTECVEALVMMGESGFVKSCLYFYEWMSLQEPSLASPRACSVLFTLLGRERMADYILLLLSNLPDKEEFRDVRLYNAAISGLSASQRYDDAWEVYEAMDKINVYPDNVTCAILITTLRKAGRSAKEVWEIFEKMSEKGVKWSQDVFGGLVKSFCDEGLKEEALVIQTEMEKKGIRSNTIVYNTLMDAYNKSNHIEEVEGLFTEMRDKGLKPSAATYNILMDAYARRMQPDIVETLLREMEDLGLEPNVKSYTCLISAYGRTKKMSDMAADAFLRMKKVGLKPSSHSYTALIHAYSVSGWHEKAYASFEEMCKEGIKPSVETYTSVLDAFRRSGDTGKLMEIWKLMLREKIKGTRITYNTLLDGFAKQGLYIEARDVVSEFSKMGLQPSVMTYNMLMNAYARGGQDAKLPQLLKEMAALNLKPDSITYSTMIYAFVRVRDFKRAFFYHKMMVKSGQVPDPRSYEKLRAILEDKAKTKNRKDKTAILGIINSKFGRVKAKTKGKKDEFWKYKTNRTTSPGRHRS
